Data: patent US20250360057A1, “ENHANCING DENTIN BONDING DURABILITY USING QUATERNARY PYRIDINIUM SALTS” (ADA Science and Research Institute LLC, priority 2022, published 2025)

Assay: Microtensile bond strength (μTBS) with thermal cycling for bonding durability
Details: experimental and commercial adhesives with approximately 0.25-0.5 wt % additive, before thermal cycling

## C=C(C)C(=O)Oc1ccc(/N=N/c2cc[n+](CCCCCCCCCCCCCCCC)cc2)cc1.[Br-] [Azo-QPS-C16, (E)-1-hexadecyl-4-((4-(methacryloyloxy)phenyl)diazenyl)-pyridinium bromide]
  μTBS: > 35 MPa
